Source: patent US6495529B1 (Warner-Lambert Company, priority 1998, dated 2002)
At least one compound was matched to its structure with a doubt left.

System: Sprague Dawley rats
Experiment: Nasal airway pressure in normal (non-histamine-challenged) rats
Settings: 25% of the dose that increased MAP 10%, i.v.

CN[C@@H](C)[C@H](O)c1ccccc1 [(−)-ephedrine]
Mean Decrease in Nasal Airway Pressure: − 3.6 ± 1.9 mm water
